Measurements: PMC3325209
No constants are given. Whether binding was seen depends on the method and setting. In cells and extracts the contact can be indirect. For part of these data: Binding can be weak; no strength is given. Where a sequence is shown, tags or fusion partners need not be part of it.

Experiments:
Test in all cases: split reporter; BiFC with halves of citrine (YN, YC) in N. benthamiana leaves, agroinfiltration at A600 0.05, confocal microscopy at about 38 h post agroinfiltration
[1] = substrate: PIPO domain of TuMV P3N-PIPO fused to the N-terminal half of citrine (Turnip mosaic virus (TuMV))
[2] = target: P3N domain (N terminus of TuMV P3) fused to the N-terminal half of citrine (Turnip mosaic virus (TuMV))
[3] = target: TuMV P3N-PIPO fused to the N-terminal half of citrine (Turnip mosaic virus (TuMV))

B1: Arabidopsis PCaP1 fused to the C-terminal half of citrine (protein, UniProt Q96262 1-225)
chain: MGYWNSKVVPKFKKLFEKNSAKKAAAAEATKTFDESKETINKEIEEKKTELQPKVVETYEATSAEVKALVRDPKVAGLKKNSAAVQKYLEELVKIEFPGSKAVSEASSSFGAGYVAGPVTFIFEKVSVFLPEEVKTKEIPVEEVKAEEPAKTEEPAKTEGTSGEKEEIVEETKKGETPETAVVEEKKPEVEEKKEEATPAPAVVETPVKEPETTTTAPVAEPPKP
- binding [1]: binds
- binding [2]: no binding
- binding [3]: binds
